# Data taken from PubChem BioAssay AID588342 (National Center for Advancing Translational Sciences (NCATS), 2011).
# By UniProt entry, the sequences of proteins in these tests, tags left out.
# UniProt P08659, whole entry, looked up: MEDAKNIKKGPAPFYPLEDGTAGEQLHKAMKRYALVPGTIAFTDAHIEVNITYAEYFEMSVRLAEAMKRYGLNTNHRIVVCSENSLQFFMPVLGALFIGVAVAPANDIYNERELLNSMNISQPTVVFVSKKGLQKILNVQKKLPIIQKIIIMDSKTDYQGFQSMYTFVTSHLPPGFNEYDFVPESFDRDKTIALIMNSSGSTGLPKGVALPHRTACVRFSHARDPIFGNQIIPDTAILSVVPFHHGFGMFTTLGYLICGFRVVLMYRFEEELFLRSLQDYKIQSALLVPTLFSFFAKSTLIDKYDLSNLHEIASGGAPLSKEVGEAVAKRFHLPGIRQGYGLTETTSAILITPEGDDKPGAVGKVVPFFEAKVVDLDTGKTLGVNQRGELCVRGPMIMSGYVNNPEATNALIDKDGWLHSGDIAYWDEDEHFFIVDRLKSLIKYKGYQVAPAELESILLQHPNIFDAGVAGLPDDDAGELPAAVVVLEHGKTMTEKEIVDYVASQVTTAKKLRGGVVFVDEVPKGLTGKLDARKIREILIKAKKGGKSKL
# Only a part is listed here, and it is no random draw. Inconclusive results are not listed. Activity calls are given as the source filed them. The call rests on the fitted dose curve; in most records, active means well fitted inhibition curve with a large enough effect; inconclusive means small, poorly fitted or top-dose-only effect; inactive means flat fitted curve, though single readings scatter.
# Biological target: Luciferin 4-monooxygenase (Photinus pyralis) (UniProt P08659)
# Experiment: qHTS profiling assay for firefly luciferase inhibitor/activator using purifed enzyme and Km concentrations of substrates (counterscreen for miR-21 project); further: nearly all actives have a fitted effect of over 55% in size
# Conditions: purified FLuc, luminescence inhibition
# Excerpt: MLPCN Grant: 1 R21 NS059478-01 (miR-21 grant) Assay Provider: NCGC NCGC Assay Overview: Firefly (Photinus pyralis) luciferase is one of the most commonly used transcriptional reporters for a number of reasons. It is considered one of the more dynamically responsive reporters -that is, responsive to changes in reporter transcription - as it requires no post-translational modifications and is enzymatically active directly after protein synthesis (Wood, 1998). Additionally, the half-life of the luciferase protein is short relative to other reporter-gene products (Wood, 1995). […] Although light produced in a bioluminescence reaction is of lower intensity than that produced during fluorescence emission, this is offset by little to no background light inherent to luminescent assays. […] Accumulated intracellular FLuc protein can be measured as an increase in luminescence signal, upon addition of detection reagents (which contain high concentrations of FLuc substrates) commonly used in high-throughput screening. In cell-based reporter gene assays that use FLuc as the reporter gene to quantitate the potential influence of a given compound against the target biology, this apparent increase in luminescence can mistakenly be interpreted as identification of a compound that is active against the target of interest. […]
row,SMILES,Potency
1,Cc1cc(=O)oc2cc(OCc3ccccc3)ccc12,active: 7.57 µM
2,O=c1ccc2ccc(OCc3ccccc3)cc2o1,active: 12 µM
